Laboratory results: PubChem BioAssay AID504648 (National Center for Advancing Translational Sciences (NCATS), 2011)
About 610 (0.16%) of roughly 390,000 compounds were called active. Inconclusive results, whose numbers are uncertain, are shown with a selection of clear calls. Calls come from the whole dose curve; as a rule, active = well fitted inhibition curve with a large enough effect; inconclusive = small, poorly fitted or top-dose-only effect, or effect the other way, or another doubt; inactive = no such curve, though single readings can be large or run the other way. Potencies of inconclusive entries are doubtful fits and often do not repeat.

experiment: Nrf2 qHTS screen for inhibitors: counterscreen for cytotoxicity; details: A549 ARE-Fluc cells, CellTiter-Fluor viability, 18-24 h; activity change, negative = cytotoxicity: at 46 µM (top of the series)
Summary of the method: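 Cytotoxicity counterscreen: CellTiter-Fluor fluorescence was measured in A549 ARE_Fluc cells after 18-24 h of compound exposure in a concentration series. The subsequent BugLite luminescent read reports ARE-luciferase activity.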
% is set by controls: 0 for no effect and ±100 for the full control effect; potency is the fitted concentration of half-maximal effect.

SMILES	Potency	activity change, negative = cytotoxicity
COc1ccc(CN2C(=O)C(NC(=O)c3cccc(C)c3)(C(F)(F)F)N=C2c2ccccc2)cc1 (stereo not drawn)	inconclusive: 9.2 µM [falling, partial curve, poor fit]	
O=C(COC(=O)c1c2c(nc3ccccc13)CCN(Cc1ccccc1)C2)Nc1c(F)cccc1F	inconclusive: 18.4 µM [falling, partial curve]	
COc1ccc([N+](=O)[O-])cc1NC(=S)NC(NC(=O)C(c1ccccc1)c1ccccc1)C(Cl)(Cl)Cl (stereo not drawn)	inconclusive: 20.6 µM [falling, partial curve]	
Cc1sc(NC(=O)CSc2ncn(-c3ccccc3)n2)nc1-c1ccccc1		inactive: -6.68%
O=C(CN1C(=O)C2(SCC(=O)N2c2cccc(Cl)c2)c2ccccc21)NCCc1ccccc1 (stereo not drawn)	inconclusive: 16.4 µM [falling, partial curve, poor fit]	
Cc1cc(C)n2ncc(C(=O)Nc3ccccc3)c2n1		inactive: 0.711%
CCOc1ccccc1OCC(=O)Nc1ccc(S(=O)(=O)Nc2nc(C)cc(C)n2)cc1	inconclusive: 25.9 µM [falling, partial curve, poor fit]	
NCCCCCc1nnc(SCc2ccccc2Cl)o1	inconclusive: 7.31 µM [activator, partial curve, poor fit]	
COc1cc(C2C=C(c3cccs3)Nc3ncnn32)cc(OC)c1OC (stereo not drawn)	inconclusive: 29.1 µM [activator, single point]	
CC[C@@H](C)[C@H](NC(=O)OC(C)(C)C)c1nnc(S(=O)(=O)Cc2cc(C)ccc2C)o1	inconclusive: 29.1 µM [falling, single point]	
O=C(NCc1cccs1)c1ccc(Cn2c(SCc3cccc(F)c3)nc3cccnc32)cc1	inconclusive: 29.1 µM [falling, single point]	
CCCCOC(=O)c1ccc(NC(=O)Cn2nnc3sc4c(c3c2=O)CCCC4)cc1		inactive: -2.89%
CCc1cccc(NC(=O)c2cc3c(=O)n(Cc4ccc(OC)cc4)ccc3nc2C)c1		inactive: -0.0051%
Cc1cc2c(NC3CCCCC3)ncnc2s1		inactive: -12.4%
CCCN1CCN(C(=O)C2CCN(c3nnc(C)c4c(C)n(-c5ccc(C)cc5)nc34)CC2)CC1	inconclusive: 16.4 µM [falling, single point]	
CCCCC1CCC(C(=O)NC2CCS(=O)(=O)C2)CC1 (stereo not drawn)		inactive: 7.41%
Cc1ccc(C)c(N2CCN(C(=O)Cn3ncc4ccsc4c3=O)CC2)c1		inactive: 1.71%
Cc1ccc(C(=O)N2NC(c3ccccc3F)C3C(=O)N(c4cccc(C)c4)C(=O)C32)cc1 (stereo not drawn)	inconclusive: 1.84 µM [activator, full curve, poor fit]	
C=CCN1c2ccccc2[C@]23C[C@@H](C(=O)OC)N(C(=O)c4cc(C)oc4C)C2=NC(C(=O)OC)=C(C(=O)OC)[C@H]13	inconclusive: 20.6 µM [falling, partial curve, poor fit]	
O=C(CSc1ccccn1)Nc1nc2ccccc2s1		inactive: 9.15%
O=C(NCc1ccco1)c1nc2c(nnn2Cc2ccccc2Cl)c(=O)[nH]1	inconclusive: 7.31 µM [falling, partial curve]	
O=C(CN1C(=O)NC(Cc2ccccc2)(Cc2ccccc2)C1=O)NCC1CCCCC1	inconclusive: 29.1 µM [falling, single point]	
CN(C)c1ccc(Nc2c3c4c(cccc4n(C)c2=O)C(=O)c2ccccc2-3)cc1	active: 14.6 µM	

SMILES	Potency	activity change, negative = cytotoxicity
CC1CCN(S(=O)(=O)c2ccc(C(=O)NCc3ccc4c(c3)OCO4)cc2)CC1		inactive: 9.83%
CN1C(=O)C(Cl)(Cl)C(=O)c2ccccc21	inconclusive: 25.9 µM [falling, partial curve, poor fit]	
CN(C(=O)CCl)C1CCCc2ccccc21 (stereo not drawn)	inconclusive: 29.1 µM [falling, single point]	
CCOc1ccc(CCNC(=O)c2cnc3sc(N4CCC(C)CC4)nn3c2=O)cc1		inactive: 9.69%
Oc1ccc(N=Nc2c(O)ccc3ccccc23)cc1	inconclusive: 7.31 µM [falling, partial curve, poor fit]	
O=C(Nc1ccc(Oc2cccc(C(F)(F)F)c2)nc1)c1ccccc1		inactive: -3.39%
O=C(C1CCC1)N1CCc2cc(S(=O)(=O)Nc3ccc4c(c3)OCCO4)ccc21		inactive: -13.6%
CCN(CC)C1CCN(C(=O)c2ccc(OC3CCN(CCc4ccccc4)CC3)cc2)C1 (stereo not drawn)	inconclusive: 23.1 µM [falling, single point]	
CCCCc1nc(NCCNC(=O)c2ccccc2)c(C#N)c2c1CSC(C)(C)C2	inconclusive: 23.1 µM [falling, partial curve, poor fit]	
Cc1ccc(/C=C2\SC(=S)N(C3CCS(=O)(=O)C3)C2=O)cc1 (stereo not drawn)	inconclusive: 6.51 µM [falling, full curve]	
CC(=O)c1ccc(Nc2cc(C)nc3c(C)cc(C)cc23)cc1	inconclusive: 16.4 µM [falling, partial curve]	
COc1ccc(OC)c(NC(=O)CSc2ccc(-c3ccco3)nn2)c1		inactive: -13.3%
CNC(=O)CN1C(=O)c2cccnc2Sc2ccccc21		inactive: 14.5%
COc1ccc2c3c(cccc13)C(=O)N(O)C2=O	inconclusive: 18.4 µM [activator, partial curve, poor fit]	
CN(C)S(=O)(=O)c1cccc(NC(=O)CSc2nncn2C)c1		inactive: -5.55%
O=S(=O)(c1ccc2c(c1)OCCO2)N1CCN(S(=O)(=O)c2ccccc2F)CC1		inactive: -6.18%
CCN(CC)CCC(c1ccc(N(C)C)cc1)c1c(OC)cc(OC)c2c(C)cc(=O)oc12 (stereo not drawn)	inconclusive: 16.4 µM [falling, partial curve]	
COc1cccc(/C(C)=N/NS(=O)(=O)c2ccc(Cl)cc2)c1	inconclusive: 10.3 µM [activator, partial curve, poor fit]	
CCN(CC)CCNC(=O)c1cc(-c2cccnc2)nc2ccc(S(=O)(=O)N3CCC(C)CC3)cc12	active: 23.1 µM	
Cc1c(C(=O)O)cnc2c([N+](=O)[O-])cnn12	inconclusive: 10.3 µM [falling, partial curve]	
COC(=O)c1cc(NC(=O)CC2SC(=Nc3ccccc3)N(CCc3c[nH]c4ccccc34)C2=O)cc(C(=O)OC)c1 (stereo not drawn)	inconclusive: 16.4 µM [falling, partial curve, poor fit]	
COc1ccc(/C=N/NC(=O)c2cccc([N+](=O)[O-])c2)cc1OC(=O)c1ccc(C)cc1	inconclusive: 9.2 µM [falling, partial curve, poor fit]	
CCCCNC1=CC(=O)C(=O)c2ccccc21	inconclusive: 29.1 µM [falling, single point]	

SMILES	Potency	activity change, negative = cytotoxicity
OCCNc1nc(C2CC2)nc2c1nnn2Cc1ccccc1Cl	inconclusive: 23.1 µM [falling, single point]	
Cc1ccc(CSCC(=O)Nc2ccc(N3CCOCC3)cc2N2CCOCC2)cc1		inactive: 0.745%
CC[C@]12c3[nH]c4ccc(Cl)cc4c3CCN1C(=O)[C@@H](CC(=O)NCCC1=CCCCC1)C[C@@H]2C(=O)N1CCN(C(=O)C2CC2)CC1	inconclusive: 29.1 µM [falling, single point]	
Cc1ccc(C2=CC(c3ccccc3F)n3c(nc4ccccc43)N2)cc1C (stereo not drawn)		inactive: 4%
CN=c1sc2c(n1C)C(=O)c1ccccc1C2=O	inconclusive: 29.1 µM [falling, single point]	
Cn1cnc([N+](=O)[O-])c1Sc1nc(N)nc2c1ncn2C1OC(CO)C(O)C1O (stereo not drawn)	inconclusive: 10.3 µM [falling, partial curve, poor fit]	
O=c1c2[nH]c3ccccc3c2nc2n1CCCS2		inactive: 1.31%
Cc1ccc(C(=O)NCC2CCCO2)cc1[N+](=O)[O-] (stereo not drawn)		inactive: 0.593%
CCCc1cc(=O)oc2cc(C)cc(OCC(=O)NCCCN3CCCC3=O)c12		inactive: -2.87%
C=CCC1[C@H](C)[C@H]2[C@@H]3CC[C@@H](C3)[C@H]2CN1S(=O)(=O)c1ccc(C)cc1 (stereo partly drawn)	inconclusive: 20.6 µM [activator, single point]	
CCOC(=O)C1=C(CN2CCN(c3ccccc3F)CC2)NC(=O)NC1c1ccc(Cl)cc1 (stereo not drawn)		inactive: -21.6%
Cc1cc(C(=O)CSc2nnc(NCc3ccccc3)s2)c(C)n1C	inconclusive: 20.6 µM [falling, partial curve, poor fit]	
S=C(NCCN1CCOCC1)N1CCN(c2cccc(Cl)c2)CC1		inactive: -12.4%
Cc1nn(CC(=O)N2CCN(c3ccccn3)CC2)c(=O)c2cc3sccc3n12	inconclusive: 32.6 µM [falling, partial curve, poor fit]	
Cc1c(Cl)cccc1-n1nc(C)c2c(C(=O)NCc3ccccc3)cc(C3CC3)nc21		inactive: 3.77%
C=C(C1=CCN(S(=O)(=O)C(C)(C)C)[C@@H]1CCO)c1ccccc1		inactive: 4.5%
Nc1nc(=S)c2ncn([C@@H]3O[C@H](CO)[C@@H](O)[C@H]3O)c2[nH]1	inconclusive: 6.51 µM [falling, partial curve, poor fit]	
O=[N+]([O-])c1cc(C(F)(F)F)ccc1NCCOc1ccccc1	inconclusive: 29.1 µM [falling, single point]	
CCOC(=O)c1ccc(COC(=O)CNC(=O)CNC(=O)c2ccc(OC)cc2)o1	inconclusive: 6.51 µM [activator, partial curve, poor fit]	
Cc1ccc(NC(=O)CN2C(=O)COc3ccc(S(=O)(=O)N4CCCCC4)cc32)cc1N(C)C		inactive: -0.0154%
Cc1ccccc1OCc1nc(-c2ccc(NC(=O)c3ccc4c(c3)OCO4)cc2)no1	inconclusive: 29.1 µM [falling, single point]	
CCC(CC)COC(=O)C(C#N)c1nc2ccccc2nc1N1CCN(CC)CC1 (stereo not drawn)	inconclusive: 2.59 µM [falling, full curve]	

For convenience, part of the list above:
SMILES	Potency	activity change, negative = cytotoxicity
Cc1ccc(CSCC(=O)Nc2ccc(N3CCOCC3)cc2N2CCOCC2)cc1		inactive: 0.745%
CC[C@]12c3[nH]c4ccc(Cl)cc4c3CCN1C(=O)[C@@H](CC(=O)NCCC1=CCCCC1)C[C@@H]2C(=O)N1CCN(C(=O)C2CC2)CC1	inconclusive: 29.1 µM [falling, single point]	
Cc1ccc(C2=CC(c3ccccc3F)n3c(nc4ccccc43)N2)cc1C (stereo not drawn)		inactive: 4%
CN=c1sc2c(n1C)C(=O)c1ccccc1C2=O	inconclusive: 29.1 µM [falling, single point]	
Cn1cnc([N+](=O)[O-])c1Sc1nc(N)nc2c1ncn2C1OC(CO)C(O)C1O (stereo not drawn)	inconclusive: 10.3 µM [falling, partial curve, poor fit]	
O=c1c2[nH]c3ccccc3c2nc2n1CCCS2		inactive: 1.31%
Cc1ccc(C(=O)NCC2CCCO2)cc1[N+](=O)[O-] (stereo not drawn)		inactive: 0.593%
CCCc1cc(=O)oc2cc(C)cc(OCC(=O)NCCCN3CCCC3=O)c12		inactive: -2.87%
C=CCC1[C@H](C)[C@H]2[C@@H]3CC[C@@H](C3)[C@H]2CN1S(=O)(=O)c1ccc(C)cc1 (stereo partly drawn)	inconclusive: 20.6 µM [activator, single point]	
CCOC(=O)C1=C(CN2CCN(c3ccccc3F)CC2)NC(=O)NC1c1ccc(Cl)cc1 (stereo not drawn)		inactive: -21.6%
Cc1cc(C(=O)CSc2nnc(NCc3ccccc3)s2)c(C)n1C	inconclusive: 20.6 µM [falling, partial curve, poor fit]	
S=C(NCCN1CCOCC1)N1CCN(c2cccc(Cl)c2)CC1		inactive: -12.4%
Cc1nn(CC(=O)N2CCN(c3ccccn3)CC2)c(=O)c2cc3sccc3n12	inconclusive: 32.6 µM [falling, partial curve, poor fit]	
Cc1c(Cl)cccc1-n1nc(C)c2c(C(=O)NCc3ccccc3)cc(C3CC3)nc21		inactive: 3.77%
C=C(C1=CCN(S(=O)(=O)C(C)(C)C)[C@@H]1CCO)c1ccccc1		inactive: 4.5%
Nc1nc(=S)c2ncn([C@@H]3O[C@H](CO)[C@@H](O)[C@H]3O)c2[nH]1	inconclusive: 6.51 µM [falling, partial curve, poor fit]	
O=[N+]([O-])c1cc(C(F)(F)F)ccc1NCCOc1ccccc1	inconclusive: 29.1 µM [falling, single point]	
